Experimental data as given in article PMC7595112, “Ketohexokinase-A acts as a nuclear protein kinase that mediates fructose-induced metastasis in breast cancer” (Nature Communications, 2020).
No constants are given. Whether binding was seen depends on the method and setting. Binding seen in cells or lysates may run through a third protein. Here binding means that the protein was enriched with, or labelled near, the bait; the list need not be complete. Sequences can lack the tags named with a protein. Values belong to the binder of their own block, whether it stands above or below them.

Target: T1, His-KHK-A expressed in breast-cancer cells (human) (UniProt P50053)
T1 sequence: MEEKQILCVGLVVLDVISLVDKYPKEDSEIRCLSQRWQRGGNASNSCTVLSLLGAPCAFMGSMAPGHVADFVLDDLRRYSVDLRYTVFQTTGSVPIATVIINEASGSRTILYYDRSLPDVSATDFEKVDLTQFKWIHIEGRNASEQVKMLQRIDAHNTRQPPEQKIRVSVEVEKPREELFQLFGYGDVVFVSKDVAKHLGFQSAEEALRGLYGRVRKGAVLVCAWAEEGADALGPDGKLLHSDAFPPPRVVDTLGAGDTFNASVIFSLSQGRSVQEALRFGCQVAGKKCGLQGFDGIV
Test: affinity purification with mass spectrometry; MCF-7 and MDA-MB-231 transfected with His-KHK-A, with or without 5 mM fructose for 8 h; lysates on nickel-NTA beads at 4 °C for 4 h, eluted with 250 mM imidazole, LC-MS/MS

- binding: binds
B1: glyoxalase domain-containing protein 4 (GLOD4), endogenous (protein, UniProt Q9HC38 1-313)
chain: MAARRALHFVFKVGNRFQTARFYRDVLGMKVESCSVARLECSGAISAHCSDYTRITEDSFSKPYDGKWSKTMVGFGPEDDHFVAELTYNYGVGDYKLGNDFMGITLASSQAVSNARKLEWPLTEVAEGVFETEAPGGYKFYLQNRSLPQSDPVLKVTLAVSDLQKSLNYWCNLLGMKIYEKDEEKQRALLGYADNQCKLELQGVKGGVDHAAAFGRIAFSCPQKELPDLEDLMKRENQKILTPLVSLDTPGKATVQVVILADPDGHEICFVGDEAFRELSKMDPEGSKLLDDAMAADKSDEWFAKHNKPKASG

- binding: binds
B2: tyrosine 3-monooxygenase/tryptophan 5-monooxygenase activation protein Eta (YWHAH), endogenous (protein, UniProt Q04917 1-246)
chain: MGDREQLLQRARLAEQAERYDDMASAMKAVTELNEPLSNEDRNLLSVAYKNVVGARRSSWRVISSIEQKTMADGNEKKLEKVKAYREKIEKELETVCNDVLSLLDKFLIKNCNDFQYESKVFYLKMKGDYYRYLAEVASGEKKNSVVEASEAAYKEAFEISKEQMQPTHPIRLGLALNFSVFYYEIQNAPEQACLLAKQAFDDAIAELDTLNEDSYKDSTLIMQLLRDNLTLWTSDQQDEEAGEGN
